According to PMC9663503, “Independently evolved viral effectors convergently suppress DELLA protein SLR1-mediated broad-spectrum antiviral immunity in rice” (Nature Communications, 2022):

Tests used:
[1] = molecular target: T1, GST-SLR1 (rice (Oryza sativa)) (UniProt Q7G7J6); test: pull-down; GST-SLR1 on GST beads, in the absence of GA3; His-fusion viral protein; anti-GST and anti-His blots; both purified
T1 sequence: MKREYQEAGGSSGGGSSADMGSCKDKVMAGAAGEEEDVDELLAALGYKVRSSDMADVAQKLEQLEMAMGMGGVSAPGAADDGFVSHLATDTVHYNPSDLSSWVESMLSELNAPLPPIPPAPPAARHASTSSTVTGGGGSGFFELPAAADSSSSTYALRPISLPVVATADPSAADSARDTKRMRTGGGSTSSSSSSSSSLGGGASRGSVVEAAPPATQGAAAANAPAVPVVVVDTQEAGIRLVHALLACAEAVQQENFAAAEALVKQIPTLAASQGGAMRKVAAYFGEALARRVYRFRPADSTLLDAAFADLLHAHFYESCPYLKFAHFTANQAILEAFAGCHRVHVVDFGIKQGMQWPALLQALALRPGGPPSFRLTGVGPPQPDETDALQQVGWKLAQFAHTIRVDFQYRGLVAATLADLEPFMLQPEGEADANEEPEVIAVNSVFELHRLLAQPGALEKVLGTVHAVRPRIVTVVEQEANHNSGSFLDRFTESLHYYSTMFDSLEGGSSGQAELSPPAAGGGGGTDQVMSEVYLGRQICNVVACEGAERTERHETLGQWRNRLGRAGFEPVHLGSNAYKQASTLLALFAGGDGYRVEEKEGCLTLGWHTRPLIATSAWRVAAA

[2] = molecular target: T2, SLR1-flag (rice (Oryza sativa)) (UniProt Q7G7J6); test: co-IP; N. benthamiana leaves co-expressing the tagged proteins, harvested 48 hpi; IP buffer 25 mM Tris-HCl pH 7.4, 150 mM NaCl, 1% NP-40; Flag-trap beads 2 h at 4 °C; immunoblot
T2 sequence: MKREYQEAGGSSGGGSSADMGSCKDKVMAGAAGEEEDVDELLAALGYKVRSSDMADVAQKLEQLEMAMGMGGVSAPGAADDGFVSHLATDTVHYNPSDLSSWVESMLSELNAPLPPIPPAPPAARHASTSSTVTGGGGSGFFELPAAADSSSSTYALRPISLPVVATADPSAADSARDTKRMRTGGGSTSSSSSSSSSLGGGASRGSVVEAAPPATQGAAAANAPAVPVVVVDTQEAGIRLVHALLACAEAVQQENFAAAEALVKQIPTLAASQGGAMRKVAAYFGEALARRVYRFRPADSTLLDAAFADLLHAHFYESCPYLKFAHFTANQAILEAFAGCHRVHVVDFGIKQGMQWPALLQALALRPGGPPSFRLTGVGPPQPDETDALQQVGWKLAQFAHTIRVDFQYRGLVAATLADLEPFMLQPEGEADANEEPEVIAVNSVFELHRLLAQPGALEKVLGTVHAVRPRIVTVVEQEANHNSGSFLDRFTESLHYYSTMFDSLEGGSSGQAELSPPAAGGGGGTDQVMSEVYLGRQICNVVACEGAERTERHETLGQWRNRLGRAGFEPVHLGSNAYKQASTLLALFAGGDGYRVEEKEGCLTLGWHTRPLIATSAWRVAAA

[3] = molecular target: T3, OsGID1-flag (rice (Oryza sativa)) (UniProt Q6L545); test: as above
T3 sequence: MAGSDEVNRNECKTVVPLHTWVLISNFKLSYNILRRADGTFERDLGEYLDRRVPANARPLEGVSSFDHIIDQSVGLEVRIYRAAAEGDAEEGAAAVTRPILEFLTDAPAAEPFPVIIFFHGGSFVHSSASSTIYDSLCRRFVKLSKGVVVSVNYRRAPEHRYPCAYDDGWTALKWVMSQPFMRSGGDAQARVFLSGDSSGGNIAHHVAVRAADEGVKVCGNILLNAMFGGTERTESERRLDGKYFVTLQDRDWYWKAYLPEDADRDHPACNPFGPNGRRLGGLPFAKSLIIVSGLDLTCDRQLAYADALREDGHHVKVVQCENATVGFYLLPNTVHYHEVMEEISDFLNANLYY

[4] = molecular target: T4, SLR1 (expressed in N. benthamiana; tag not stated) (rice (Oryza sativa)) (UniProt Q7G7J6); test: as above
T4 sequence: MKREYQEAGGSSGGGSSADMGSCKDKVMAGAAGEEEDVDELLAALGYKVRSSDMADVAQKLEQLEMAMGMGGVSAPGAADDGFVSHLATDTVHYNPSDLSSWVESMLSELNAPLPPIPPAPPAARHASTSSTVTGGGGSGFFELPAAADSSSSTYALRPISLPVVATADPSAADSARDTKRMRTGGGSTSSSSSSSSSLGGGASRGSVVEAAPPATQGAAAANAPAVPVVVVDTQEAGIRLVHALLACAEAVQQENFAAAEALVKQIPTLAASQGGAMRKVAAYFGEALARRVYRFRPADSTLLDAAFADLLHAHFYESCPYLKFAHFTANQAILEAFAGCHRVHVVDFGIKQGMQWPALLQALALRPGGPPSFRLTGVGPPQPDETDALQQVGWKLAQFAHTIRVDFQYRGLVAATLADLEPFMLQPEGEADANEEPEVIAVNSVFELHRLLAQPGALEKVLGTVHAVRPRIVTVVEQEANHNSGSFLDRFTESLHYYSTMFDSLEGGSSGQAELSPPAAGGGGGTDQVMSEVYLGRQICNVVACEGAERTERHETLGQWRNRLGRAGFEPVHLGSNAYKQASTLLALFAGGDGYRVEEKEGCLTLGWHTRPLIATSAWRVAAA

[5] = molecular target: T2, SLR1-flag (rice (Oryza sativa)); test: co-IP; competitive co-IP in N. benthamiana leaves; a third protein (SP8, P2 or SLR1) co-infiltrated at OD600 0.5 or 1.0; 50 µM MG132 at 24 hpi (Fig. 3e, f, 6a-d); Flag-tag or HA-tag paramagnetic beads
[6] = molecular target: T5, SLR1 (BiFC fusion used with OsJAZ proteins; YFP half not stated) (rice (Oryza sativa)) (UniProt Q7G7J6); test: split reporter; BiFC; cYFP and nYFP fusions agro-infiltrated into N. benthamiana leaves, confocal microscopy at 48 h
T5 sequence: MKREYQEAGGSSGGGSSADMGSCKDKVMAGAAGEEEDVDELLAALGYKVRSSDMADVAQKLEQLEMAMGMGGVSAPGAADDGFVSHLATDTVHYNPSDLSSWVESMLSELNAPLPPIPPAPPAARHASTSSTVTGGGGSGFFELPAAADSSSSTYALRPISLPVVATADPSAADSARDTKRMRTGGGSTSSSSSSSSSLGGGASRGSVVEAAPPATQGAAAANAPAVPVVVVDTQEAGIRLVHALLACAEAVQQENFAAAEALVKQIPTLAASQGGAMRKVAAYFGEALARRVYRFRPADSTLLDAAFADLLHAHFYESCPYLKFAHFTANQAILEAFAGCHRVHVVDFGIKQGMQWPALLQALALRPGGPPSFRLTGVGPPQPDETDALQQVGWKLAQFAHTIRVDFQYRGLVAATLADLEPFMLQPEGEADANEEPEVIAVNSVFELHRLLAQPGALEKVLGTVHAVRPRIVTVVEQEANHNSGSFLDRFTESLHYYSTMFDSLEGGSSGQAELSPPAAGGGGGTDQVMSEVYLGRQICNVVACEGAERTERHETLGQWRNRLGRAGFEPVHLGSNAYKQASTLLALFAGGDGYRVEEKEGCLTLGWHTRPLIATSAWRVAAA

[7] = molecular target: T6, SLR1-cYFP (rice (Oryza sativa)) (UniProt Q7G7J6); test: as above
T6 sequence: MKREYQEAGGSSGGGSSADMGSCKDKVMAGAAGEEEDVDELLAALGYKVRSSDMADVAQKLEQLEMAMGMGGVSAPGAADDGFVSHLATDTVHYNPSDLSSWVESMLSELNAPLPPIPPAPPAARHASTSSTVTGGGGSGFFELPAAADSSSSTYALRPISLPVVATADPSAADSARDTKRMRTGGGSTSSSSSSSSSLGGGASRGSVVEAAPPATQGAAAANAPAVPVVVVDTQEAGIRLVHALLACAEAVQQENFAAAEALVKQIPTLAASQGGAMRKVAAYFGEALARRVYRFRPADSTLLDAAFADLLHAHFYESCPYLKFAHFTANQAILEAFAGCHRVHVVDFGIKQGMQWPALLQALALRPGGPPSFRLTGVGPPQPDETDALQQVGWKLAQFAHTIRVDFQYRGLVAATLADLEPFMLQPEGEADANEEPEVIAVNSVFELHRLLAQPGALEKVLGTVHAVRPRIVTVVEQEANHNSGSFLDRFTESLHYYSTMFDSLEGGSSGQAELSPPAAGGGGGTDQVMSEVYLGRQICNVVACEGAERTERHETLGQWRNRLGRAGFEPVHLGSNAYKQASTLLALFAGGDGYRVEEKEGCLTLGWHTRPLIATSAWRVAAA

TF-His-SP8
binding [1]: binds

P2-myc (Rice stripe virus (RSV))
binding [2]: binds | binding [3]: binds

OsJAZ9-HA (rice (Oryza sativa))
binding [4]: binds | binding [5]: binds

OsJAZ4 (BiFC fusion; YFP half not stated) (rice (Oryza sativa))
binding [6]: binds

SP8-nYFP
binding [7]: binds

MBP-His-P2 (Rice stripe virus (RSV))
binding [1]: binds

OsJAZ3 (BiFC fusion; YFP half not stated) (rice (Oryza sativa))
binding [6]: binds

OsJAZ12 (BiFC fusion; YFP half not stated) (rice (Oryza sativa))
binding [6]: binds

No constants are given. Whether binding was seen depends on the method and setting. Binding can be weak; no strength is given. Sequences can lack the tags named with a protein. For some of these results: Binding seen in cells or lysates may run through a third protein.
